Here are results for 1 molecule from patent US20050176829A1, “Methods for treating hypothyroidism” (priority 2003, published 2005).

The structures appear in SMILES notation.

This series can be described thus: Serum T3, free T3 and T4 levels in hypothyroid (thyroidectomized) rats after T3 infusion or bolus injection (radioimmunoassay). Format: in vivo, rat. From the text: FIG. 2. […] Three rats per each group.
Methods and Materials—Animal Studies. […] Results are expressed as means ±SE.

`N[C@@H](Cc1cc(I)c(Oc2ccc(O)c(I)c2)c(I)c1)C(=O)O` [T3, triiodothyronine]: the T4 came out at 1.2 ± 0.2 µg/dL (T3 infusion 0.25 μg/d, 3 days); 1.2 ± 0.2 µg/dL (T3 infusion 0.8 μg/d, 3 days); 1.2 ± 0.2 µg/dL (T3 infusion 1.0 μg/d, 1 week); 0.45 ± 0.1 µg/dL (T3 infusion 7.0 μg/d, 1 week).
